The list shows a part of the results. Single values are uncertain, as repeats are few or missing.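 Cells were imaged in 1,536-well plates, and nuclei stained with an antibody against cleaved PARP were counted against all DNA-stained nuclei to give the apoptosis fraction. Screening doses were chosen to leave most cells alive, and resting and induced cleaved-PARP levels differ strongly between cell lines.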
Tests used:
Test in all cases: cleaved PARP positive nuclei fraction relative to DMSO control; melanoma cells; higher = more apoptosis
Settings in all cases: library dose: low library concentration; 72 h
COLO792 = system: COLO792
COLO800 = system: COLO800
COLO829 = system: COLO829
G361 = system: G361
IPC-298 = system: IPC-298
IST-MEL1 = system: IST-MEL1
LB2518-MEL = system: LB2518-MEL
LOXIMVI = system: LOXIMVI
MZ2-MEL = system: MZ2-MEL
MeWo = system: MeWo
RPMI7951 = system: RPMI7951
RVH-421 = system: RVH-421
SkMel28 = system: SkMel28
SkMel2 = system: SkMel2
SkMel30 = system: SkMel30
SkMel5 = system: SkMel5
UACC257 = system: UACC257
UACC62 = system: UACC62

| Compound | cleaved PARP positive nuclei fraction (COLO792) [%] | cleaved PARP positive nuclei fraction (COLO800) [%] | cleaved PARP positive nuclei fraction (COLO829) [%] | cleaved PARP positive nuclei fraction (G361) [%] | cleaved PARP positive nuclei fraction (IPC-298) [%] | cleaved PARP positive nuclei fraction (IST-MEL1) [%] | cleaved PARP positive nuclei fraction (LB2518-MEL) [%] | cleaved PARP positive nuclei fraction (LOXIMVI) [%] | cleaved PARP positive nuclei fraction (MZ2-MEL) [%] | cleaved PARP positive nuclei fraction (MeWo) [%] | cleaved PARP positive nuclei fraction (RPMI7951) [%] | cleaved PARP positive nuclei fraction (RVH-421) [%] | cleaved PARP positive nuclei fraction (SkMel28) [%] | cleaved PARP positive nuclei fraction (SkMel2) [%] | cleaved PARP positive nuclei fraction (SkMel30) [%] | cleaved PARP positive nuclei fraction (SkMel5) [%] | cleaved PARP positive nuclei fraction (UACC257) [%] | cleaved PARP positive nuclei fraction (UACC62) [%] |
| --- | --- | --- | --- | --- | --- | --- | --- | --- | --- | --- | --- | --- | --- | --- | --- | --- | --- | --- |
| N#CC[C@H](C1CCCC1)n1cc(-c2ncnc3[nH]ccc23)cn1 [ruxolitinib] + O=C(O)C(=O)Nc1sc2c(c1C(=O)O)CCNC2 [TCS401] (first compound 1 µM, partner dose 1.66667 µM) | 202 | 49.7 | 142 | 88.3 | 91.8 | 107 | 66.3 | 191 | 99 | 126 | 118 | 120 | 145 | 98.6 | 67.8 | 41.2 | 368 | 145 |
| O=C(Nc1cc(C(F)(F)F)cc(C(F)(F)F)c1)c1cc(Cl)ccc1O + O=S(=O)(c1ccccc1)N(CC(F)(F)F)c1ccc(C(O)(C(F)(F)F)C(F)(F)F)cc1 [T0901317] (first compound 0.016 µM, partner dose 1.4 µM) | 86.2 | 139 | 128 | 87.8 | 156 | 119 | 67.8 | 166 | 107 | 208 | 41.8 | 88.2 | 88 | 129 | 22 | 186 | 196 | 170 |
| O=C(/C=C/c1cccnc1)NCCCCC1CCN(C(=O)c2ccccc2)CC1 + COc1cc(N2CCC(N3CCN(C)CC3)CC2)ccc1Nc1ncc(Cl)c(Nc2ccccc2S(=O)(=O)C(C)C)n1 [NVP-TAE684] (first compound 0.01 µM, partner dose 0.08 µM) | 409 | 589 | 486 | 3420 | 328 | 70.7 | 317 | 43 | 442 | 106 | 210 | 259 | 48.9 | 568 | 87.4 | 170 | 18.2 | 80.7 |
| CCCCCCCCCCCCCCCCCCOP(=O)([O-])OC1CC[N+](C)(C)CC1 [Perifosine] + COc1cc(N2CCC(N3CCN(C)CC3)CC2)ccc1Nc1ncc(Cl)c(Nc2ccccc2S(=O)(=O)C(C)C)n1 [NVP-TAE684] (first compound 0.4 µM, partner dose 0.08 µM) | 74.6 | 79.8 | 118 | 45.7 | 65.1 | 108 | 36.9 | 32.5 | 140 | 379 | 88.4 | 96.6 | 192 | 163 | 334 | 97.6 | 258 | 160 |
| Cc1cn(-c2cc(NC(=O)c3ccc(C)c(Nc4nccc(-c5cccnc5)n4)c3)cc(C(F)(F)F)c2)cn1 [nilotinib] + N#Cc1c(O)c2c(-c3ccc(-c4ccccc4O)cc3)csc2[nH]c1=O [A769662] (first compound 0.2 µM, partner dose 2 µM) | 121 | 164 | 117 | 172 | 60.9 | 97.2 | 67.2 | 175 | 47.5 | 81.5 | 85.4 | 107 | 33.1 | 132 | 177 | 70.9 | 5.74 | 257 |
| Cc1cn(-c2cc(NC(=O)c3ccc(C)c(Nc4nccc(-c5cccnc5)n4)c3)cc(C(F)(F)F)c2)cn1 [nilotinib] + O=C1NC(=O)/C(=C/c2ccc(-c3ccc(F)cc3O)o2)S1 [AS252424] (first compound 0.2 µM, partner dose 1 µM) | 117 | 48.9 | 130 | 16.8 | 66 | 91.5 | 65.2 | 144 | 74.9 | 60.9 | 164 | 93.3 | 137 | 185 | 217 | 66.5 | 241 | 106 |
| CC[C@]1(O)C[C@H]2CN(CCc3c([nH]c4ccccc34)[C@@](C(=O)OC)(c3cc4c(cc3OC)N(C=O)[C@H]3[C@@](O)(C(=O)OC)[C@H](OC(C)=O)[C@]5(CC)C=CCN6CC[C@]43[C@@H]65)C2)C1 [vincristine] + Cn1cc(/C=C2\C(=O)Nc3cccnc32)c2ccccc21 [GW441756] (first compound 0.0001 µM, partner dose 0.4 µM) | 72.4 | 66.6 | 30.8 | 89.6 | 136 | 97 | 128 | 166 | 121 | 146 | 297 | 141 | 168 | 25.6 | 387 | 50.3 | 203 | 230 |
| CC[C@]1(O)C[C@H]2CN(CCc3c([nH]c4ccccc34)[C@@](C(=O)OC)(c3cc4c(cc3OC)N(C=O)[C@H]3[C@@](O)(C(=O)OC)[C@H](OC(C)=O)[C@]5(CC)C=CCN6CC[C@]43[C@@H]65)C2)C1 [vincristine] + CCc1ccc(CCOc2ccc(CC3SC(=O)NC3=O)cc2)nc1 [pioglitazone] (first compound 0.0001 µM, partner dose 2 µM) | 145 | 45.4 | 145 | 233 | 211 | 105 | 128 | 64.3 | 187 | 95.1 | 86.5 | 154 | 513 | 261 | 40.4 | 101 | 1030 | 380 |
| CC[C@]1(O)C[C@H]2CN(CCc3c([nH]c4ccccc34)[C@@](C(=O)OC)(c3cc4c(cc3OC)N(C=O)[C@H]3[C@@](O)(C(=O)OC)[C@H](OC(C)=O)[C@]5(CC)C=CCN6CC[C@]43[C@@H]65)C2)C1 [vincristine] + Cc1cc([N+](=O)[O-])ccc1NS(=O)(=O)c1cc(Cl)ccc1Cl [FH535] (first compound 0.0001 µM, partner dose 1 µM) | 140 | 52.7 | 271 | 93.3 | 107 | 64 | 97.3 | 120 | 226 | 245 | 379 | 215 | 187 | 152 | 88 | 88.9 | 399 | 342 |
| Cc1cn(-c2cc(NC(=O)c3ccc(C)c(Nc4nccc(-c5cccnc5)n4)c3)cc(C(F)(F)F)c2)cn1 [nilotinib] + Cc1cc([N+](=O)[O-])ccc1NS(=O)(=O)c1cc(Cl)ccc1Cl [FH535] (first compound 0.2 µM, partner dose 1 µM) | 135 | 105 | 53.6 | 148 | 47.6 | 122 | 136 | 73.2 | 72.9 | 16.2 | 138 | 65.3 | 126 | 131 | 53.4 | 93.8 | 125 | 84.7 |
| O=c1[nH]nc(Sc2ncc([N+](=O)[O-])s2)n1-c1ccc2c(c1)OCCO2 + CCCCCCCCCCCC1=C(O)C(=O)C=C(O)C1=O [Embelin] (first compound 0.2 µM, partner dose 1.2 µM) | 102 | 69 | 61.2 | 94.1 | 145 | 113 | 73.8 | 61 | 47.4 | 88.5 | 54 | 135 | 88.1 | 128 | 133 | 87.8 | 197 | 67.5 |
| Cc1ccc(Nc2nccc(N(C)c3ccc4c(C)n(C)nc4c3)n2)cc1S(N)(=O)=O [Pazopanib] + O=c1cc(-c2cccc3c2Sc2ccccc2S3)oc(N2CCOCC2)c1 [KU55933] (first compound 0.4 µM, partner dose 1 µM) | 93.7 | 24.2 | 46 | 73.7 | 118 | 61.6 | 110 | 137 | 49 | 29.8 | 75.2 | 191 | 192 | 111 | 64.9 | 141 | 65.5 | 71.3 |
| Cc1ccc(Nc2nccc(N(C)c3ccc4c(C)n(C)nc4c3)n2)cc1S(N)(=O)=O [Pazopanib] + c1cc(-c2cnn3cc(-c4ccc(OCCN5CCCCC5)cc4)cnc23)ccn1 [Dorsomorphin] (first compound 0.4 µM, partner dose 0.4 µM) | 86.8 | 71.3 | 227 | 109 | 107 | 110 | 190 | 121 | 130 | 29.7 | 40.5 | 94.3 | 61.6 | 87.1 | 85.7 | 53 | 257 | 63.6 |
| N#CC[C@H](C1CCCC1)n1cc(-c2ncnc3[nH]ccc23)cn1 [ruxolitinib] + Oc1cc(-c2nc(-c3ccccc3)[nH]c2-c2ccncc2)ccc1Cl [L779450] (first compound 1 µM, partner dose 0.2 µM) | 59.1 | 67 | 90.2 | 127 | 32.3 | 121 | 185 | 178 | 48.9 | 153 | 137 | 44.5 | 83.2 | 89.1 | 328 | 64.1 | 87.1 | 152 |
| Cc1cn(-c2cc(NC(=O)c3ccc(C)c(Nc4nccc(-c5cccnc5)n4)c3)cc(C(F)(F)F)c2)cn1 [nilotinib] + O=C(O)C(=O)Nc1sc2c(c1C(=O)O)CCNC2 [TCS401] (first compound 0.2 µM, partner dose 1.66667 µM) | 113 | 104 | 74.4 | 96.2 | 181 | 140 | 45.3 | 183 | 129 | 82 | 141 | 147 | 46.1 | 90.6 | 170 | 169 | 113 | 245 |

A different layout for part of the listing above:
Compound	cleaved PARP positive nuclei fraction (COLO792) [%]	cleaved PARP positive nuclei fraction (COLO800) [%]	cleaved PARP positive nuclei fraction (COLO829) [%]	cleaved PARP positive nuclei fraction (G361) [%]	cleaved PARP positive nuclei fraction (IPC-298) [%]	cleaved PARP positive nuclei fraction (IST-MEL1) [%]	cleaved PARP positive nuclei fraction (LB2518-MEL) [%]	cleaved PARP positive nuclei fraction (LOXIMVI) [%]	cleaved PARP positive nuclei fraction (MZ2-MEL) [%]	cleaved PARP positive nuclei fraction (MeWo) [%]	cleaved PARP positive nuclei fraction (RPMI7951) [%]	cleaved PARP positive nuclei fraction (RVH-421) [%]	cleaved PARP positive nuclei fraction (SkMel28) [%]	cleaved PARP positive nuclei fraction (SkMel2) [%]	cleaved PARP positive nuclei fraction (SkMel30) [%]	cleaved PARP positive nuclei fraction (SkMel5) [%]	cleaved PARP positive nuclei fraction (UACC257) [%]	cleaved PARP positive nuclei fraction (UACC62) [%]
O=C(/C=C/c1cccnc1)NCCCCC1CCN(C(=O)c2ccccc2)CC1 + COc1cc(N2CCC(N3CCN(C)CC3)CC2)ccc1Nc1ncc(Cl)c(Nc2ccccc2S(=O)(=O)C(C)C)n1 [NVP-TAE684] (first compound 0.01 µM, partner dose 0.08 µM)	409	589	486	3420	328	70.7	317	43	442	106	210	259	48.9	568	87.4	170	18.2	80.7
Cc1ccc(Nc2nccc(N(C)c3ccc4c(C)n(C)nc4c3)n2)cc1S(N)(=O)=O [Pazopanib] + c1cc(-c2cnn3cc(-c4ccc(OCCN5CCCCC5)cc4)cnc23)ccn1 [Dorsomorphin] (first compound 0.4 µM, partner dose 0.4 µM)	86.8	71.3	227	109	107	110	190	121	130	29.7	40.5	94.3	61.6	87.1	85.7	53	257	63.6
